Experimental findings from paper PMC6465352, “Citrate synthase from Synechocystis is a distinct class of bacterial citrate synthase” (Scientific Reports, 2019) are described below.

For this test, the target named is T1, SyCS (Synechocystis sp. PCC 6803, UniProt Q59977).
T1 construct: gene gltA; full-length gltA (synthesized) in pGEX5X-1, GST-tagged, tag not reported cut; expressed in E. coli DH5alpha, glutathione-Sepharose purified
T1 sequence (Q59977 1-397): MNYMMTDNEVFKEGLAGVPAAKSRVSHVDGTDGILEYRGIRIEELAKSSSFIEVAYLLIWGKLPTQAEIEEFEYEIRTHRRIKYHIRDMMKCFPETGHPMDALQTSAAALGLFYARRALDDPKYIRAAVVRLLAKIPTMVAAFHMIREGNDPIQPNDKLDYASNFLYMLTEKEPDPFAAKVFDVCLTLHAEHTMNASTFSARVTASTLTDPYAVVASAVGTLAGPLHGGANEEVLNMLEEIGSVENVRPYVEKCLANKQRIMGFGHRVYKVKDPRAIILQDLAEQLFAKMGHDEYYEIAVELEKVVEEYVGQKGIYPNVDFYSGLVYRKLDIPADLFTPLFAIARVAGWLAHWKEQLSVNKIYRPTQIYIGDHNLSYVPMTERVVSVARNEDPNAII
Kind of test: DTNB assay at A412, residual activity. The note with it: read-out: % activity at 5 mM. Format: biochemical.

Regarding `O=C(O)CC(O)(CC(=O)O)C(=O)O` [citrate], the activity at 5000 µM amounted to 1%.
